Counter-ions that a name gives are not always drawn. Some of the results follow. Single values are uncertain here, since repeats match poorly.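 About 40 Schistosoma mansoni schistosomula per well were imaged over time in bright field and compared with 0.1% DMSO wells. A drug counts as a hit if its Mahalanobis distance reaches 2.47 or more, three standard deviations above the DMSO control mean. Degeneracy is the fraction of worms scored opaque.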 Numbered stars: 1 amine (or outer) side, 2 acyl side, 3 side chain; on linkers, the order of the positions; unused ones are H or OH. Bridge positions count the residues as written; N and C are the ends. Square brackets hold non-standard residues; d marks the D form. Peptide text beside a SMILES is read from it. * marks the point of attachment. X1 = NC1=N[C@@H]([C@H](N[*:1])C(=O)[*:2])C[C@H](O)N1; ΔAla(Z-3-ureido) = NC(=O)N/C=C(\N)C(=O)O; β3hOrn = NCCC[C@H](N)CC(=O)*; Dap = NC[C@H](N)C(=O)O
test system: Schistosoma mansoni schistosomula; experiment: Mahalanobis distance of static-rate-frequency phenotype descriptors from DMSO controls (dimensionless); higher = stronger phenotypic change versus DMSO; conditions: 10 µM; 72 h

Mahalanobis distance, active:
NC(=O)[C@@H]1CCCN1C(=O)[C@H](Cc1c[nH]cn1)NC(=O)[C@@H]1CCC(=O)N1 [Protirelin] 2.88, CCNC(=O)/C=C/c1cccc(Br)c1 [Cinromide] 2.67, Clc1ccc(Nc2nnc(Cc3ccncc3)c3ccccc23)cc1 [Vatalanib Dihydrochloride] 5.29, CC(=O)OCC[N+](C)(C)C [Acetylcholine] 2.63, CC(C)C(=O)Nc1ccc([N+](=O)[O-])c(C(F)(F)F)c1 [Flutamide] 6.72, CCN(CC)Cc1cc(Nc2ccnc3cc(Cl)ccc23)ccc1O [Amodiaquine Dihydrochloride] 3.15

Mahalanobis distance, inactive:
NC(=O)NS(=O)(=O)c1ccc(N)cc1 [Sulfacarbamide] 1.91, C=CCSCC1Nc2cc(Cl)c(S(N)(=O)=O)cc2S(=O)(=O)N1 (configuration not stated) [Althiazide] 1.53, CC(C)(O)c1ccccc1CC[C@@H](SCC1(CC(=O)O)CC1)c1cccc(/C=C/c2ccc3ccc(Cl)cc3n2)c1 [montelukast] 1.59, CC(C)(O)c1ccccc1CC[C@@H](SCC1(CC(=O)O)CC1)c1cccc(/C=C/c2ccc3ccc(Cl)cc3n2)c1 [Montelukast Sodium] 2.39, CCN[C@@H]1C[C@H](N)[C@@H](O[C@H]2OC(CN)=CC[C@H]2N)[C@H](O)[C@H]1O[C@H]1OC[C@](C)(O)[C@H](NC)[C@H]1O [Netilmicin Sulfate] 1.46, CC(=O)Oc1cccc(C)c1 [Meta-cresyl Acetate] 1.55, CN(C)CC(c1ccc(O)cc1)C1(O)CCCCC1 (configuration not stated) [Desvenlafaxine Succinate] 2.47, OCc1ccccc1O [Salicyl Alcohol] 1.84, COc1c(N2CCNC(C)C2)c(F)cc2c(=O)c(C(=O)O)cn(C3CC3)c12 (configuration not stated) [Gatifloxacin] 2.29, O=C(c1ccccc1)c1ccc2n1CCC2C(=O)O (configuration not stated) [Ketorolac Tromethamine] 1.23, Nc1ccn([C@@H]2CS[C@H](CO)O2)c(=O)n1 [Lamivudine] 1.68, Cc1cc(N)c2ccccc2[n+]1CCCCCCCCCC[n+]1c(C)cc(N)c2ccccc21 [Dequalinium Chloride] 2.39, COc1ccccc1OCC(O)COC(N)=O (configuration not stated) [Methocarbamol] 1.74, NCC[C@H](O)C(=O)N[C@@H]1C[C@H](N)[C@@H](O[C@H]2O[C@H](CN)[C@@H](O)[C@H](O)[C@H]2O)[C@H](O)[C@H]1O[C@H]1O[C@H](CO)[C@@H](O)[C@H](N)[C@H]1O [Amikacin Sulfate] 1.95, O=C(O)CSCC(=O)NC1CCSC1=O (configuration not stated) [Erdosteine] 1.39, C[N+](C)(C)CCO.[Cl-] [Choline Chloride] 2.02, CN1CCC(OC(c2ccccc2)c2ccccc2)CC1 [Diphenylpyraline Hydrochloride] 2.27, O=C(Oc1cccc2cccnc12)c1ccccc1 [benzoxiquine] 2.44, CCOC(=O)[C@H](CCc1ccccc1)N[C@@H](C)C(=O)N1Cc2cc(OC)c(OC)cc2C[C@H]1C(=O)O [Moexipril Hydrochloride] 2.47, NCCC[C@H](N)CC(=O)N[C@H]1CNC(=O)[C@H]([C@H]2C[C@H](O)NC(N)=N2)NC(=O)/C(=C/NC(N)=O)NC(=O)[C@H](CO)NC(=O)[C@H](CO)NC1=O [Viomycin Sulfate] (β3hOrn-[Dap]SS[ΔAla(Z-3-ureido)][X1]; lactam 1-C) 1.8, NC(CO)C(=O)NNCc1ccc(O)c(O)c1O (configuration not stated) [Benserazide] 2.01, C[C@H]1COc2c(N3CCN(C)CC3)c(F)cc3c(=O)c(C(=O)O)cn1c23 [Levofloxacin] 2.16, Nc1nc(O)c2ncn(CCC(CO)CO)c2n1 [Penciclovir] 1.36, Fc1ccc([C@@H]2CCNC[C@H]2COc2ccc3c(c2)OCO3)cc1 [Paroxetine] 2.16, O=c1[nH]cnc2c1ncn2[C@H]1CC[C@@H](CO)O1 [Didanosine] 1.72, O=C(O)CCCC[C@@H]1SC[C@@H]2NC(=O)N[C@@H]21 [Biotin] 2.27, CN1CCN(c2cc3c(cc2F)c(=O)c(C(=O)O)cn3-c2ccc(F)cc2)CC1 [Difloxacin Hydrochloride] 1.61, COC(=O)C1=C(C)NC(C)=C(C(=O)OC(C)C)C1c1cccc2nonc12 (configuration not stated) [Isradipine] 2.16, CC(=O)SCC(Cc1ccccc1)C(=O)NCC(=O)OCc1ccccc1 (configuration not stated) [Racecadotril] 1.54, OCCN1C[C@H](O)[C@@H](O)[C@H](O)[C@H]1CO [Miglitol] 1.88, C[C@H]1O[C@@H](O[C@H]2CC[C@@]3(C)[C@H](CC[C@@H]4[C@@H]3C[C@@H](O)[C@]3(C)[C@@H](C5=CC(=O)OC5)CC[C@]43O)C2)C[C@H](O)[C@@H]1O[C@H]1C[C@H](O)[C@H](O[C@H]2C[C@H](O)[C@H](O[C@@H]3O[C@H](CO)[C@@H](O)[C@H](O)[C@H]3O)[C@@H](C)O2)[C@@H](C)O1 [Deslanoside] 1.76, Cn1cnc([N+](=O)[O-])c1Sc1ncnc2[nH]cnc12 [Azathioprine] 1.49, CCC(=O)OCC(=O)[C@@]1(OC(=O)CC)[C@@H](C)C[C@H]2[C@@H]3CCC4=CC(=O)C=C[C@]4(C)[C@@]3(Cl)[C@@H](O)C[C@@]21C [Beclomethasone Dipropionate] 1.59, CC(C)NCC(O)c1cc(O)cc(O)c1 (configuration not stated) [Metaproterenol] 1.7, CNCCCN1c2ccccc2CCc2ccccc21 [Desipramine] 2.46, CC[n+]1c(-c2ccccc2)c2cc(N)ccc2c2ccc(N)cc21 [Homidium Bromide] 1.96
